Key:
[1] = format: in vivo; details: subcutaneous
[2] = format: in vivo

CN1CC[C@]23c4c5ccc(O)c4O[C@H]2[C@@H](O)C=C[C@H]3[C@H]1C5.O=S(=O)(O)O [morphine sulfate, reference compound]
Agonist Activity ED50, Rats (SC) [1]: 0.16 mg/kg
Agonist Activity ED50, Mice (PO) ([2]; oral): 3.1 mg/kg
Agonist Activity ED50, Mice (SC) ([2]; subcutaneous): 0.26 mg/kg

Source: patent US4228285A, “14-Hydroxy-6-oxamorphinans and 14-hydroxy-6-oxaisomorphinans” (priority 1979, dated 1980)
